PubChem BioAssay AID1508588 | Peter MacCallum Cancer Centre – 2020
The deposit covers about 18,000 reagents; this is a part drawn at random. 790 of all reagents (4.4%) count as active. 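Calls rest on a combination of fold-change classes in drug and vehicle arms, not all shown here.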 Entries without a mark were called inactive.

- Test: 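Knock-downs boosting vemurafenib effects on melanoma cell growth or lactate release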 (primary screen)
- Cells: human WM266.4 melanoma cells (BRAF V600 mutant)
- Reagent: siRNA pool against human genes, 40 nM
- Time to read-out: 96 h from transfection to read-out
- Treatment: vemurafenib 300 nM (about IC25), added 48 h after transfection, for 48 h; comparison arm got DMSO vehicle only
- Measurement: 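Ratios to non-targeting siRNA for cell gain, counted as DAPI nuclei after minus before drug and averaged over two replicates, and for absorbance-read medium lactate per cell; both binned into fold-change classes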
- Direction: cell gain with vemurafenib: higher = more cell gain than with non-targeting siRNA; lactate per cell with vemurafenib: higher = more lactate made per cell
- Rule for the call: 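Enhancement is called by pairing each knock-down's vehicle-arm and drug-arm fold-change classes for viability or glycolysis; which class combinations qualify is not given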
- Meaning of the calls: active = enhances vemurafenib effect; inactive = no enhancement seen

| target | cell gain with vemurafenib | lactate per cell with vemurafenib |
| --- | --- | --- |
| FUS (GeneID 2521) | 0.47 | 0.72 |
| CDX2 (GeneID 1045) | 0.83 | 0.89 |
| MTFP1 (GeneID 51537) | 0.92 | 1.29 |
| ZNF134 (GeneID 7693) | 0.65 | 0.42 |
| NDUFS4 (GeneID 4724) | 1.38 | 0.57 |
| PPM1G (GeneID 5496) | 0.55 | 1.48 |
| CST5 (GeneID 1473) | 0.46 | 0.77 |
| GLIPR1 (GeneID 11010) | 0.94 | 0.67 |
| CT45A6 (GeneID 541465) | 0.65 | 0.56 |
| SAMD12 (GeneID 401474) | 0.71 | 1.84 |
| CACNG4 (GeneID 27092) | 0.58 | 1.44 |
| EVA1B (GeneID 55194) | 0.65 | 0.56 |
| KLHL17 (GeneID 339451) | 1 | 1.04 |
| RRS1 (GeneID 23212) | 0.19 | 1.99 |
| ZNF195 (GeneID 7748) | 0.93 | 1.15 |
| ZIC1 (GeneID 7545) | 0.38 | 1.01 |
| GOLGA3 (GeneID 2802) | 0.09 | 0.83 |
| UNCX (GeneID 340260) | 0.74 | 0.55 |
| RPL35 (GeneID 11224) | 0.04 | 1.68 |
| CTAGE1 (GeneID 64693) | 0.83 | 0.82 |
| ZNF227 (GeneID 7770) | 0.97 | 1.02 |
| RGS7BP (GeneID 401190) | 0.36 | 0.9 |
| PCDHGA1 (GeneID 56114) | 0.05 | 2.73 |
| SMO (GeneID 6608) | 0.83 | 1.1 |
| SNRK (GeneID 54861) | 0.49 | 0.94 |
| SRGN (GeneID 5552) | 0.79 | 1.18 |
| HLA-A (GeneID 3105) | 0.7 | 0.67 |
| ZFAND4 (GeneID 93550) | 0.57 | 0.56 |
| PRCC (GeneID 5546) | 0.87 | 1.11 |
| MAP2K5 (GeneID 5607) | 0.47 | 0.98 |
| FAM13A (GeneID 10144) | 0.43 | 1.14 |
| DDRGK1 (GeneID 65992) | 0.9 | 0.84 |
| CYP2A13 (GeneID 1553) | 0.54 | 1 |
| NIPAL2 (GeneID 79815) | 0.5 | 1.65 |
| TRAPPC9 (GeneID 83696) | 0.49 (active) | 0.09 |
| TXNDC2 (GeneID 84203) | 0.42 | 1.37 |
| WBP2 (GeneID 23558) | 1.22 | 0.3 |
| ADORA1 (GeneID 134) | 0.27 | 1.14 |
| ASCL1 (GeneID 429) | 0.42 | 0.88 |
| CHRDL2 (GeneID 25884) | 1.02 | 0.53 |
| CCT2 (GeneID 10576) | 0.48 | 1.91 |
| CARS2 (GeneID 79587) | 1.06 | 0.58 |
| LIN7B (GeneID 64130) | 0.41 | 0.94 |
| TRIP12 (GeneID 9320) | 1 | 0.71 |
| ARHGAP5 (GeneID 394) | 0.44 | 1.74 |
| PGK2 (GeneID 5232) | 0.51 | 0.84 |
| HACE1 (GeneID 57531) | 0.31 | 0.82 |
| TTLL13 (GeneID 440307) | 1.04 | 0.84 |
| C18orf54 (GeneID 162681) | 0.44 | 0.96 |
| DAB2 (GeneID 1601) | 0.2 | 1.92 |
| HHIPL1 (GeneID 84439) | 0.17 | 1.52 |
| ZNF692 (GeneID 55657) | 0.77 | 1.14 |
| REV3L (GeneID 5980) | 0.59 | 1.04 |
| CHRNA1 (GeneID 1134) | 0.64 | 0.5 |
| CLDN15 (GeneID 24146) | 0.39 | 0.77 |
| CD19 (GeneID 930) | 0.85 | 0.39 |
| KLF1 (GeneID 10661) | 0.51 | 0.58 |
| DEFB129 (GeneID 140881) | 0.61 | 0.7 |
| ABHD17B (GeneID 51104) | 0.59 (active) | 0.56 |
| GPATCH11 (GeneID 253635) | 0.72 | 1.01 |
| TAX1BP1 (GeneID 8887) | 0.39 (active) | 0.44 |
| HSP90B1 (GeneID 7184) | 0.06 | 2.24 |
| APP (GeneID 351) | 1.19 | 1.22 |
| FKBP14 (GeneID 55033) | 1.19 | 1.12 |
| PTPN1 (GeneID 5770) | 0.96 | 0.44 |
| NAA38 (GeneID 84316) | 0 | 0 |
| PPP1R12B (GeneID 4660) | 0.2 | 1.12 |
| COX14 (GeneID 84987) | 0.36 | 0.86 |
| POU5F1 (GeneID 5460) | 0.8 | 1.05 |
| MED19 (GeneID 219541) | 0.32 | 1.4 |
| SELPLG (GeneID 6404) | 0.53 | 1.69 |
| CASP7 (GeneID 840) | 0.86 | 0.86 |
| ZNF441 (GeneID 126068) | 0.34 | 1.39 |
| LOC284009 (GeneID 284009) | 0.46 | 0.63 |
| MEX3A (GeneID 92312) | 1.12 | 0.86 |
| MME (GeneID 4311) | 0.7 | 1.16 |
| PPP1CB (GeneID 5500) | 0.85 | 0.41 |
| IRX2 (GeneID 153572) | 0.43 | 0.68 |
| COMMD2 (GeneID 51122) | 0.51 | 0.94 |
| NUSAP1 (GeneID 51203) | 0.69 | 1.1 |
| APLF (GeneID 200558) | 0.59 | 1.43 |
| TGFBR1 (GeneID 7046) | 1.21 | 0.74 |
| SMYD5 (GeneID 10322) | 0.84 | 0.95 |
| IL15 (GeneID 3600) | 0.74 | 0.64 |
